These are yes or no findings as the source states them, for the method shown. Binding seen in cells or lysates may run through a third protein. Some binding calls cover weakened binding; strength is not graded here. Tags and fused reporters may be left off the sequences shown.
Molecular target: T1, 3 × FLAG-TMED3 (Transmembrane emp24 domain-containing protein 3) (UniProt Q9Y3Q3)
T1 sequence: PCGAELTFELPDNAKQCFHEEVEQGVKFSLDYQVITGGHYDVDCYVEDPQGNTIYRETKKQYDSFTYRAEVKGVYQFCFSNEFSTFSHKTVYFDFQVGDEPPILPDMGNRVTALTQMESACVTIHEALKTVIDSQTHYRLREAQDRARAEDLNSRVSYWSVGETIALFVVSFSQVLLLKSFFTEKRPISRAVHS
Assay: co-IP; FLAG beads (Sigma, A2220) on lysates of NC and OE (3xFLAG-TMED3) U87 MG cells; Western blot of input and IP samples

Protein sequences, listed by entry. Tags and fused reporters are not part of them.
UniProt Q13283: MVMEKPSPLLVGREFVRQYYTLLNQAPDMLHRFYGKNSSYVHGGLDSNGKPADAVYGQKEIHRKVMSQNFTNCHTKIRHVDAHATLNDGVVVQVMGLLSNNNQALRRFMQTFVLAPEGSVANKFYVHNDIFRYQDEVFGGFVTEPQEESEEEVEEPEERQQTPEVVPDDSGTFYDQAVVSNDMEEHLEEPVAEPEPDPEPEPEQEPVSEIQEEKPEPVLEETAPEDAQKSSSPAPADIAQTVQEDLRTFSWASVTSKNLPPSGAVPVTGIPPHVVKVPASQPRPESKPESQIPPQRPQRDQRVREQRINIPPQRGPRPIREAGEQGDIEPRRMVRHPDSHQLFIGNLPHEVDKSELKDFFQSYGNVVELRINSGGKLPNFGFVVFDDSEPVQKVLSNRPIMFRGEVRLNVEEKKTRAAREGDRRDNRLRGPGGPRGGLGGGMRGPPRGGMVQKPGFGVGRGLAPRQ
UniProt O95365: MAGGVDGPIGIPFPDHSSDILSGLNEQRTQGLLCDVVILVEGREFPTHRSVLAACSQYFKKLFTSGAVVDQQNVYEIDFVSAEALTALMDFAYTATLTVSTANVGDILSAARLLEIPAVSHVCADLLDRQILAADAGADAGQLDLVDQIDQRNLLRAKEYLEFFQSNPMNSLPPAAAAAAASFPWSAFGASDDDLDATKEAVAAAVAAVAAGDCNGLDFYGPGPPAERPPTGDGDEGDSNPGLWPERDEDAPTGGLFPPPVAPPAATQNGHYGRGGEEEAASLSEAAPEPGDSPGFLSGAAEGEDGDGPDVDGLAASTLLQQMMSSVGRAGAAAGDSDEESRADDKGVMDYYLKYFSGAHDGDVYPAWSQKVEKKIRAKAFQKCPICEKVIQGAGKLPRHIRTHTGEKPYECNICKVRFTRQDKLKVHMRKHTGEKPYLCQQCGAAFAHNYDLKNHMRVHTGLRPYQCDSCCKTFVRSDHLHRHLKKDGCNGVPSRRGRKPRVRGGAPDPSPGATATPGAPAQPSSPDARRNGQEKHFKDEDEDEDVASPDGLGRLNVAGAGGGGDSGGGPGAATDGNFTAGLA

binding | Substance
binds | G3BP1 (from UniProt Q13283 1-466)
binds | Zinc finger and BTB domain-containing protein 7A (ZBTB7A) (from UniProt O95365 1-584)

Source: publication PMC12141185
